The other results are listed elsewhere or left out. Further columns of the screen follow, without active or inactive calls. Most of these compounds were active or inconclusive in the main read-out, so they are no random draw. Words in brackets tell the shape of the fitted curve; partial curves, single points and poor fits give uncertain potencies.

A short description of the assay: qHTS Assay for Lipid Storage Modulators in Drosophila S3 Cells.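 As to cell number change: cells counted by Cell Tracker Red CMTPX staining in the red channel.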 The settings on record: BODIPY lipid droplet fluorescence, 18-24 h; for cell number change: measured here: cell count max response, cells fed with added oleic acid. The method, boiled down:
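Drosophila S3 cells loaded with oleic acid (400 uM, as added) and compounds at several concentrations; lipid droplets imaged by 488-nm laser-scanning cytometry, 500–530 nm intensity and object ratio to cell channel. Percent activity normalized to 20 uM Triacsin C.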

The mark [1] stands for this setting: measured here: lipid fluorescence (Fed channel) AC50, cells fed with added oleic acid.
[2] abbreviates: measured here: cell number channel AC50, cells fed with added oleic acid.

On to `CN(C)C(CNC(=O)c1cccnc1Sc1ccccc1)c1ccco1` (configuration not stated), for which the cell number change was 21%. The AC50 under setting [1] was 6.51 µM [falling, single point].
On to `CN1CCN(C(=O)c2ccccc2NC(=O)c2sc3ccccc3c2Cl)CC1`, for which the cell number change is -18.5%. Besides, under setting [1], the AC50 was 0.651 µM [falling, partial curve, poor fit].
On to `O=C(CN(C(=O)CNC(=O)c1cccs1)c1ccccc1F)NC1CCCCC1`, for which the cell number change is 11.8%.
As for `O=[N+]([O-])c1ccc2nc(-c3ccccn3)[nH]c2c1`, the cell number change was -33.5%. Also, under setting [1], the AC50 is 16.4 µM [falling, partial curve].
Take `Cc1[nH]c2ccccc2c1Cc1nnc(SCC(N)=O)o1`: the cell number change was determined as 17.6%. Under setting [1], the half-maximal activity concentration (AC50) is 3.26 µM [falling, single point].
As for `COc1ccc(CC(=O)NCC(=O)N=Nc2c(O)[nH]c3ccccc23)cc1`, the cell number change is -13.2%. Under setting [1], the concentration at half-maximal activity (AC50) is 14.6 µM [rising, partial curve].
On to `O=C1C(Cl)=C(NCc2cccnc2)C(=O)c2ccccc21`, for which the cell number change is -7.09%. Besides, the AC50 under setting [1] was 29.1 µM [falling, single point].
Turning to `CSc1ccc(/C=N/Nc2nc(C)cc(C)n2)cc1`, the cell number change worked out at 34.5%. For the same compound, the concentration at half-maximal activity (AC50) under setting [2] is 0.366 µM [rising, full curve]. The half-maximal activity concentration (AC50) under setting [1] is 2.91 µM [rising, full curve, poor fit].
As for `NCCCCCC(=O)N/N=C/c1coc2ccccc2c1=O`, the AC50 under setting [1] is 7.31 µM [falling, partial curve].
Regarding `Cc1csc(NC(=O)C2C3C=CC(C3)C2C(=O)O)n1` (configuration not stated), the cell number change was -66.4%. The AC50 under setting [2] was 23.1 µM [falling, partial curve, poor fit]. The AC50 under setting [1] was 29.1 µM [falling, partial curve].
Consider `COC(=O)c1cc(C)sc1NC(=O)c1cccnc1`, for which the cell number change was found to be 31.3%. For the same compound, the half-maximal activity concentration (AC50) under setting [2] is 29.1 µM [rising, single point]. Under setting [1], the AC50 is 0.731 µM [falling, single point].
For `CCCc1cc(=O)[nH]c(NCc2ccc(Cl)cc2)n1`, the cell number change is -51.9%. Further, the half-maximal activity concentration (AC50) under setting [2] was 20.6 µM [falling, single point]. For the same compound, the AC50 under setting [1] was 29.1 µM [falling, single point].
For `CC(=O)c1cccc(NC(=O)CCCCCn2nnc3ccccc3c2=O)c1`, the cell number change came to 8.51%. Under setting [1], the AC50 was 0.651 µM [falling, partial curve, poor fit].
In the case of `O=C(C1CCN(S(=O)(=O)c2ccc(F)cc2)CC1)N1CC=C(c2ccccc2)CC1`, the AC50 under setting [1] is 6.51 µM [rising, single point].
As to `NC(=S)n1[nH]c(-c2ccc([N+](=O)[O-])cc2)c(N=Nc2cccc(Cl)c2)c1=O`, the cell number change is -35%. In addition, the AC50 under setting [2] is 32.6 µM [falling, single point].
On to `Cn1cnnc1SCC(=O)c1ccc2c(c1)OCCO2`, for which the AC50 under setting [1] is 6.51 µM [falling, single point].

(Values after PubChem BioAssay AID2685 (National Center for Advancing Translational Sciences (NCATS), 2010).)
